Measurements reported in PubChem BioAssay AID2685 (National Center for Advancing Translational Sciences (NCATS), 2010).
In all, about 320,000 compounds went through this assay and about 2,100 (0.66%) were called active. Inconclusive means that the source gave no clear call. Such entries were picked first, then a sample of the others. The call rests on the fitted dose curve; in most records, active means well fitted inhibition curve with a large enough effect in the signal ratio, with a control signal flat (not every such curve was filed as active); inconclusive means small, poorly fitted or top-dose-only effect, or effect the other way, or a change in a side signal; inactive means flat fitted curve, though single readings scatter; the % refers to the signal ratio. Potencies beside an inconclusive call are fits to weak or partial responses and may not hold up.
On the % scale 0 is the no-effect control and ±100 the full control effect; potency means the concentration at half of the fitted maximal effect.

Assay: qHTS Assay for Lipid Storage Modulators in Drosophila S3 Cells
Conditions: BODIPY lipid droplet fluorescence, 18-24 h, cells fed with added oleic acid; lipid storage change, negative = inhibition: at 46.1 µM (top of the series) unless noted
How it was run: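 Laser-scanning cytometry quantifies lipid droplet accumulation (500–530 nm total intensity; droplet/cell object ratio) in oleic acid-fed (400 uM added) Drosophila S3 cells treated with a concentration series. 20 uM Triacsin C defined 100% inhibition.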
In the case of CCn1cc(C(=O)N2CC=C(c3ccccc3)CC2)c(=O)c2ccc(C)nc21, the lipid storage change, negative = inhibition is reported as inconclusive: -0.969%.
For Cc1nc2cc(N=NC3=C(O)CCCC3=O)ccc2s1, the lipid storage change, negative = inhibition was inconclusive: 14.6%.
For O=C(N/N=C/c1cccc(Oc2ccccc2)c1)c1ccccc1F, the lipid storage change, negative = inhibition was inconclusive: -47.3%.
For CC(C)N(CCO)Cc1nc(C(c2ccccc2)c2ccccc2)no1, the Potency was inconclusive: 1.46 µM [falling, full curve].
In the case of O=C(Cc1ccccc1)N[C@@H](Cc1ccccc1)c1nc2ccccc2[nH]1, the lipid storage change, negative = inhibition is reported as inconclusive: 3.73%.
In the case of COc1ccc(N2CCN(C(=O)c3ccc(COc4ccc5c(C)cc(=O)oc5c4)cc3)CC2)cc1, the lipid storage change, negative = inhibition is reported as inconclusive: 17.9%.
In the case of CC(=O)Nc1ccc(S(=O)(=O)NCc2ccc(C(=O)NCCN3CCCCCC3)cc2)cc1, the lipid storage change, negative = inhibition is reported as inconclusive: -20%.
In the case of CN(C)c1ccc(C(CNC(=O)c2ccc(C#N)cc2)c2c[nH]c3ccccc23)cc1 (stereo not given), the lipid storage change, negative = inhibition is reported as inconclusive: 22.2%.
With CC(=O)c1cc(F)ccc1OCC(=O)N1CCN(c2ccc(F)cc2)CC1 the lipid storage change, negative = inhibition was inconclusive: 13%.
In the case of Cc1ccc(C(=O)NCCn2cc(SCC(=O)Nc3cc(C)on3)c3ccccc32)cc1, the “lipid storage change, negative = inhibition” value is reported as inactive: -4.46%.
In the case of CC(=O)Oc1ccccc1/C=C/c1ccc2ccccc2[n+]1C, the lipid storage change, negative = inhibition is reported as inconclusive: -66.3%.
For C=CCN1C(=O)C(C)(C)Nc2ccccc21, the Potency was inconclusive: 0.0058 µM [falling, full curve, poor fit].
With CC(C)Oc1ccc(C(=O)NC(=S)Nc2ccc(CN3CCOCC3)cc2)cc1 the lipid storage change, negative = inhibition was inconclusive: -15.1%.
For CCn1c(CSCc2ccc(F)cc2)nnc1SCC(=O)NCc1ccccc1, the “outcome” value was “inactive [at 46.1 µM]”.
In the case of Cc1ccc(C)c(NC2=NCC(=O)N2c2ccc3c(c2)OCCO3)c1, the lipid storage change, negative = inhibition is reported as inconclusive: 7.8%.
For Cc1ccccc1NS(=O)(=O)c1ccc2c(c1)NC(=O)CO2, the lipid storage change, negative = inhibition was inconclusive: -14%.
In the case of COC(=O)c1cc(-c2ccc(OC)cc2F)nc2nc(SC)[nH]c(=O)c12, the lipid storage change, negative = inhibition is reported as inconclusive: -68.6%.
With O=C(COc1ccc(Cl)cc1)NNC(=O)c1ccncc1 the Potency was inconclusive: 29.1 µM [activator, single point].
In the case of O=C(CN1CCCCC1)N=Nc1c(O)[nH]c2ccccc12, the lipid storage change, negative = inhibition is reported as inconclusive: -1.32%.
With c1ccc(Nc2c3c(nc4ncnn24)CCC3)cc1 the lipid storage change, negative = inhibition was inconclusive: -1.73%.
In the case of Cn1nc(C(F)(F)F)c(-c2ccc(F)cc2)c1NC(=O)Nc1ccc(F)cc1, the Potency is reported as inconclusive: 29.1 µM [cytotoxic, single point].
In the case of Cc1cccc(NC(=O)COC(=O)c2cccs2)c1C, the lipid storage change, negative = inhibition is reported as inconclusive: -100%.
For CNc1cccc2c1C(=O)c1ccccc1C2=O, the Potency was active: 11.6 µM.
For O=S(=O)(c1ccc(-c2nnc(SCc3nnc(-c4ccccc4)o3)o2)cc1)N1CCCC1, the Potency was inconclusive: 0.0065 µM [falling, full curve, poor fit].
For Cc1ccc2nc(SCC(=O)OCc3ccccc3)nc(=O)n2c1, the lipid storage change, negative = inhibition was inconclusive: -21.4%.
With C/C(=N/Nc1ncc(C(F)(F)F)cc1Cl)c1ccncc1 the “lipid storage change, negative = inhibition” value was inactive: -0.464%.
With COc1ccc(OC)c(CC(NC(C)=O)C(=O)NC2CCN(c3nc(OC)nc(OC)n3)CC2)c1 (stereo not given) the Potency was inconclusive: 2.31 µM [falling, full curve, poor fit].
For O=C(COC(=O)c1ccc[nH]c1=O)NC1CCCC1, the Potency was inconclusive: 23.1 µM [falling, single point].
In the case of O=C(Nc1nnc(CCOCCOCCc2nnc(NC(=O)c3ccco3)s2)s1)c1ccco1, the Potency is reported as inconclusive: 1.16 µM [rising, full curve, poor fit].
In the case of CCCn1c(=O)c2ccccc2n2c(SCC(=O)Nc3cc(C)on3)nnc12, the Potency is reported as inconclusive: 0.13 µM [activator, full curve, poor fit].
In the case of CCN(c1ccccc1)S(=O)(=O)c1cc(CN2C(=O)c3cccnc3C2=O)ccc1OC, the lipid storage change, negative = inhibition is reported as inconclusive: 173%.
For Cc1ccc(N2CC(=O)Nc3c(sc4nc(C)cc(C)c34)C2=O)cc1, the lipid storage change, negative = inhibition was inconclusive: 13.9%.
With O=C(NC1CCCC1)C1CCC(CNS(=O)(=O)c2ccccc2)CC1 (stereo not given) the lipid storage change, negative = inhibition was inconclusive: 24.8%.
In the case of c1coc(-c2ccnc3ncnn23)c1, the Potency is reported as inconclusive: 29.1 µM [cytotoxic, single point].
With O=S1(=O)CCC(NC(=S)N2CCCCC2)C1 (stereo not given) the Potency was inconclusive: 29.1 µM [falling, single point].
In the case of Cc1c(C(=O)O)oc2c(F)cccc12, the lipid storage change, negative = inhibition is reported as inconclusive: 44.9%.
For O=C(O)c1cccc(NC(=O)c2ccc3c(c2)C(=O)N(CC2CCCO2)C3=O)c1 (stereo not given), the Potency was inconclusive: 0.092 µM [cytotoxic, full curve, poor fit].
For O=S(=O)(c1ccccc1)N1CCN(C(=S)Nc2ccc(F)cc2)CC1, the lipid storage change, negative = inhibition was inconclusive: -4.33%.
In the case of C=CCNCCOCCOc1ccc(C)cc1[N+](=O)[O-], the lipid storage change, negative = inhibition is reported as inconclusive: -30.3%.
For COc1ccc(CCNC(=O)c2ccc3c(=O)n4c(nc3c2)CCC4)cc1OC, the Potency was inconclusive: 0.82 µM [falling, full curve, poor fit].
In the case of CCOC(=O)NC(NCCc1ccccc1)(C(F)(F)F)C(F)(F)F, the lipid storage change, negative = inhibition is reported as inconclusive: 31.8%.
For CN(C)c1c(-c2ccccc2)cc(-c2ccccc2)[nH]c1=O, the lipid storage change, negative = inhibition was inconclusive: 29.1%.
In the case of CCC(C)[C@H](NC(=O)NCc1cccs1)C(=O)O (stereo not given in full), the lipid storage change, negative = inhibition is reported as inconclusive: -6.32%.
For O=C(Nc1nc(-c2ccccn2)cs1)c1cc2ccccc2o1, the lipid storage change, negative = inhibition was inconclusive: -16.5%.
With CCCCCC(C)NC(=S)NC(=O)c1cc(S(=O)(=O)N2CCOCC2)ccc1C (stereo not given) the Potency was inconclusive: 1.84 µM [falling, partial curve, poor fit].
With O=C(O)c1ccccc1C(=O)Nc1ccc(-c2csc(-c3ccccc3)n2)cc1 the lipid storage change, negative = inhibition was inconclusive: 21.8%.
With Cc1cc(NC(=O)c2cc(-c3cccc(OCC(C)C)c3)nc3ccccc23)no1 the Potency was inconclusive: 20.6 µM [falling, partial curve].
With CC(=O)c1ccc(Oc2ncnc(N)c2[N+](=O)[O-])cc1 the Potency was inconclusive: 6.51 µM [falling, single point].
For CCN(CC(=O)NC1CCS(=O)(=O)C1)S(=O)(=O)c1ccc(C)cc1C (stereo not given), the Potency was inconclusive: 29.1 µM [activator, single point].
In the case of CCN(CC)S(=O)(=O)c1ccc(N/N=C(\C)c2ccc(OC)cc2O)nc1, the lipid storage change, negative = inhibition is reported as inconclusive: -15.4%.
In the case of Cc1cccc(Cc2cnc(N3C(=N)SC(c4ccccc4)C3=O)s2)c1 (stereo not given), the Potency is reported as inconclusive: 0.058 µM [falling, full curve].
For O=C(Nc1nc(-c2ccccn2)cs1)C1CC(=O)N(c2ccc3c(c2)OCCO3)C1 (stereo not given), the Potency was inconclusive: 0.092 µM [rising, full curve].
For Cc1cc(Cl)ccc1OCC(=O)NCC(c1cccs1)N1CCOCC1 (stereo not given), the Potency was inconclusive: 7.31 µM [rising, partial curve, poor fit].
With O=C(O)c1cccc(NS(=O)(=O)/C=C/c2ccccc2)c1 the lipid storage change, negative = inhibition was inconclusive: -8.44%.
With COc1ccc(N2C(=O)CCC(C(C)=O)=C2C)cc1 the lipid storage change, negative = inhibition was inconclusive: -43.5%.
For COc1ccc(CCC(=O)O)cc1OC, the lipid storage change, negative = inhibition was inconclusive: -30.1%.
For Cc1ccc([N+](=O)[O-])cc1-c1[nH]c(-c2ccc(O)c(O)c2)nc1-c1ccccc1, the lipid storage change, negative = inhibition was inconclusive: 300%.
With CCOC(=O)c1c(NC(=O)C2C3C=CC(C3)C2C(=O)O)sc2c1CC(C)(C)OC2 (stereo not given) the Potency was inconclusive: 29.1 µM [falling, single point].
For CC(c1ccccc1)c1nnc(NC(=O)Nc2ccccc2F)s1 (stereo not given), the lipid storage change, negative = inhibition was inconclusive: -23%.
With COc1cc2c3c(c1)C1(C(=O)N3C(C)(C)C=C2C)C(C#N)=C(N)Oc2cc(O)ccc21 (stereo not given) the lipid storage change, negative = inhibition was inconclusive: 222%.
With CC(C(=O)O)c1ccc2c(c1)[nH]c1ccc(Cl)cc12 (stereo not given) the Potency was inconclusive: 0.92 µM [activator, full curve, poor fit].
In the case of O=C(CN1C(=O)c2ccccc2C1=O)N1CCN(C(=O)c2ccco2)CC1, the lipid storage change, negative = inhibition is reported as inconclusive: 6.39%.
In the case of CN(C)CCNC(=O)C(=O)Nc1ccc2c(c1)N(S(=O)(=O)c1cccs1)CCC2, the lipid storage change, negative = inhibition is reported as inconclusive: 32.5%.
In the case of Cc1cc(NC(=O)c2cccc(COc3ccc(Br)cc3)c2)no1, the lipid storage change, negative = inhibition is reported as inconclusive: 30.4%.
In the case of O=C(/C=C/c1ccncc1)c1ccc(NC(=O)c2ccccc2F)cc1, the lipid storage change, negative = inhibition is reported as inconclusive: -74.3%.
In the case of O=C(COC(=O)Cc1ccccc1F)NCCc1ccccc1, the Potency is reported as inconclusive: 2.31 µM [activator, partial curve].
In the case of O=C(C(NS(=O)(=O)c1cccs1)c1ccccc1)N1CCN(c2ccccc2F)CC1 (stereo not given), the Potency is reported as inconclusive: 2.31 µM [activator, partial curve].
For Cc1ccc(C)c(Cn2nnc(C(=O)Nc3ccc4c(c3)OCCO4)c2N)c1, the Potency was inconclusive: 14.6 µM [falling, single point].
For O=S(=O)(NCC1CCCO1)c1ccccc1 (stereo not given), the Potency was inconclusive: 16.4 µM [activator, single point].
With COc1ccc(Cl)cc1NC(=O)CN(C)C(=O)CSc1ccc2c(c1)OCCO2 the Potency was inconclusive: 16.4 µM [cytotoxic, partial curve].
In the case of O=C(COc1ccc(Br)cc1Cl)NC1CCN(Cc2ccccc2)CC1, the lipid storage change, negative = inhibition is reported as inconclusive: 5.49%.
For CNC(=O)c1c(NC(=O)C2=COCCO2)sc2c1CCC(C)C2 (stereo not given), the lipid storage change, negative = inhibition was inconclusive: -49.7%.
With O=C(NCCC1CCCCN1S(=O)(=O)c1ccccc1)C(=O)NCc1ccc(F)cc1 (stereo not given) the Potency was inconclusive: 29.1 µM [falling, single point].
For Cc1cccc(C(=O)N2CCN(Cc3nc4sc5c(c4c(=O)[nH]3)CCCC5)CC2)c1, the lipid storage change, negative = inhibition was inconclusive: 32.9%.
For CCn1c2ccccc2c2cc(C3C(C#N)=C(C)NC(C)=C3C#N)ccc21, the Potency was inconclusive: 2.06 µM [activator, full curve].
